# Taken from: PubChem BioAssay AID504791 (Drosophila RNAi Screening Center, 2011)
# Test: 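Genes whose knock-down strengthens or weakens small-RNA reporter silencing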 (primary screen)
# Cells: Drosophila S2-derived reporter cells
# Reagent: long dsRNA against Drosophila genes, about 150-250 ng dsRNA per well (siRNA assay); about 80-120 ng (miRNA assay)
# Duration: about 5 days (siRNA assay); about 4 days (miRNA assay)
# Treatment: copper sulfate induction of reporters: 25 µM (siRNA assay); 200 mM stated (miRNA assay), 1-2 days before reading
# Measured: 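Per-well ratio of Renilla over firefly light, expressed relative to that plate's average ratio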
# Direction: siRNA reporter hit score: higher = 3 marks a strong hit with raised ratio; -3 a strong hit with lowered ratio
# Call rule: 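a well was a first-pass pick when its plate-scaled ratio rose above 1.5 (siRNA assay) or 1.6 (miRNA assay), or dropped below 0.6; a gene counted only if two separate dsRNAs agreed on retest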
# The screen tested about 23,000 reagents; shown is an unselected part of those with a known target gene and a result. Of all reagents, 199 (0.86%) got an active call. 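Plate-scaled ratios behind the calls are not deposited; printed light signals are raw; many rows marked increased or decreased are still called inactive.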 A plus sign joins genes that one reagent is predicted to hit. Not all columns of the deposit are shown.
Gene,dsRNA,siRNA reporter hit score,stable siRNA reporter change,miRNA reporter change,"stable assay Renilla, run 1 (luminescence)",Outcome
Ras85D (Ras oncogene at 85D),DRSC16814,,,,4344,inactive
CG34299,DRSC13974,,,,6678,inactive
mei-217 + mei-218,DRSC20349,,,,4938,inactive
CG32448,DRSC22657,,,,3683,inactive
Cpr49Ae (Cuticular protein 49Ae),DRSC07201,,,,6914,inactive
Cyp9b2 (Cytochrome P450 9b2),DRSC07390,,,,6838,inactive
RpS20 (Ribosomal protein S20),DRSC16836,,,,7216,inactive
CG6497,DRSC10654,,,,7582,inactive
CG6497,DRSC21469,,,,9153,inactive
Uvrag (UV-resistance associated gene),DRSC02932,,,,48597,inactive
Balat (Beta-alanine transporter),DRSC06852,,,,7396,inactive
CG11357,DRSC08183,,,,6364,inactive
CG31600,DRSC22541,,,,4223,inactive
CG10710,DRSC09784,,,,6196,inactive
CG30089,DRSC06126,,,,5244,inactive
CG30089,DRSC06127,,,,5063,inactive
CG30089,DRSC06267,,,,8016,inactive
CG30089,DRSC06268,,,,3747,inactive
CG30089,DRSC21694,,,,8443,inactive
Ir31a (Ionotropic receptor 31a),DRSC22358,,,,9056,inactive
Dsor1 (Downstream of raf1),DRSC18462,,,reporter ratio lowered past the hit cutoff,4915,active
nac (neuronally altered carbohydrate),DRSC16520,,,,6914,inactive
ouib (ouija board),DRSC14376,,,,6867,inactive
m (miniature),DRSC20181,,,,5856,inactive
CG6325,DRSC16020,,,,8757,inactive
Hr3 (Hormone receptor 3),DRSC06118,,,,4107,inactive
Hr3 (Hormone receptor 3),DRSC07441,,,reporter ratio raised past the hit cutoff,10213,inactive
Sf3b2 (Splicing factor 3b subunit 2),DRSC00619,,,reporter ratio lowered past the hit cutoff,9727,active
shep (alan shepard),DRSC08748,,,,4359,inactive
shep (alan shepard),DRSC09765,,,,6122,inactive
shep (alan shepard),DRSC09771,,,,6238,inactive
CR32011 + CR32010 + PlexB + 1 more,DRSC21664,,,,10048,inactive
amrt (amaretto),DRSC19378,,,,5180,inactive
EMC8-9 (ER membrane protein complex subunit 8/9),DRSC04380,,,,18723,inactive
CG11699,DRSC19419,,,,5163,inactive
CG34169,DRSC01579,,,,5403,inactive
CG31915,DRSC03000,,,,7879,inactive
CG8004,DRSC10947,,,,9230,inactive
CG14369,DRSC14831,,,,6460,inactive
Cyt-b5-r (Cytochrome b5-related),DRSC03308,,,,9326,inactive
Nup154 (Nucleoporin 154kD),DRSC03384,,reporter ratio raised past the hit cutoff,,8953,inactive
sand (sandman),DRSC07245,,,,7275,inactive
CG30384,DRSC06032,,,,8318,inactive
sals (sarcomere length short),DRSC14925,,,,9167,inactive
sals (sarcomere length short),DRSC16113,,,,7127,inactive
ed (echinoid),DRSC00350,,,,29549,inactive
ed (echinoid),DRSC00438,,,,8471,inactive
ed (echinoid),DRSC00439,,,,9455,inactive
ed (echinoid),DRSC00478,,,,8506,inactive
CG14322,DRSC14801,,,,7839,inactive
fl(2)d (female lethal d),DRSC07620,,reporter ratio raised past the hit cutoff,,7210,inactive
ppl (pumpless),DRSC11899,,,,8186,inactive
Obp59a (Odorant-binding protein 59a),DRSC04160,,,,6195,inactive
tth (toothrin),DRSC19435,,,,6395,inactive
krz (kurtz),DRSC16979,,,,7828,inactive
Afg3l2 (AFG3 like matrix AAA peptidase subunit 2),DRSC10657,,,,7905,inactive
CG1910,DRSC15400,,,,6314,inactive
BOD1 (Biorientation Defective 1),DRSC15824,-3,,,8334,inactive
BOD1 (Biorientation Defective 1),DRSC24273,,,reporter ratio raised past the hit cutoff,,active
CG7997,DRSC07052,,,,11486,inactive
spt4,DRSC07696,,,,7742,inactive
Cyp305a1 (Cytochrome P450 305a1),DRSC11126,,,,7651,inactive

Limited to “stable assay Renilla, run 1 (luminescence)”, for 16 of the entries above:
Hr3 (Hormone receptor 3) [DRSC07441] = 10213
Sf3b2 (Splicing factor 3b subunit 2) [DRSC00619] = 9727
shep (alan shepard) [DRSC08748] = 4359
shep (alan shepard) [DRSC09765] = 6122
shep (alan shepard) [DRSC09771] = 6238
CR32011 + CR32010 + PlexB + 1 more [DRSC21664] = 10048
amrt (amaretto) [DRSC19378] = 5180
EMC8-9 (ER membrane protein complex subunit 8/9) [DRSC04380] = 18723
CG11699 [DRSC19419] = 5163
CG34169 [DRSC01579] = 5403
CG31915 [DRSC03000] = 7879
CG8004 [DRSC10947] = 9230
CG14369 [DRSC14831] = 6460
Cyt-b5-r (Cytochrome b5-related) [DRSC03308] = 9326
Nup154 (Nucleoporin 154kD) [DRSC03384] = 8953
sand (sandman) [DRSC07245] = 7275

The results go on:
Gene,dsRNA,siRNA reporter hit score,stable siRNA reporter change,miRNA reporter change,"stable assay Renilla, run 1 (luminescence)",Outcome
nenya,DRSC13838,,,,6466,inactive
Cyp6a16Psi (retired record),DRSC03307,,,,7386,inactive
robo3 (roundabout 3),DRSC00374,,,,9256,inactive
robo3 (roundabout 3),DRSC00375,,,,7920,inactive
robo3 (roundabout 3),DRSC00684,,,,7575,inactive
ND-B15 (NADH dehydrogenase (ubiquinone) B15 subunit),DRSC06199,,,,5259,inactive
Slmap (Sarcolemma associated protein),DRSC03799,,,,4688,inactive
Rab21,DRSC20968,,,,7030,inactive
CG32718,DRSC17538,,,,4976,inactive
CG33494,DRSC13715,,,,6195,inactive
Pex3 (Peroxin 3),DRSC10731,,,,8557,inactive
CG33203,DRSC14874,,,,5948,inactive
CG33203,DRSC14876,,,,5908,inactive
CG33203,DRSC14877,,,,5059,inactive
SecCl (Secretory chloride channel),DRSC10887,,,,7135,inactive
lawc (retired record),DRSC22531,,,,1192,inactive
lawc (retired record),DRSC23208,,,,5214,inactive
Or69a (Odorant receptor 69a),DRSC11243,,,,6342,inactive
Sec15 (Secretory 15),DRSC16179,,,,6566,inactive
Gr47a (Gustatory receptor 47a),DRSC06221,,,,6667,inactive
CG33259,DRSC10854,,,,7000,inactive
Ndf (Nucleosome-destabilizing factor),DRSC02775,,,,27959,inactive
Arp1 (Actin-related protein 1),DRSC14118,,,,6920,inactive
CG8379,DRSC16414,,,,7198,inactive
l(3)76BDm (lethal (3) 76BDm),DRSC11047,,,,8430,inactive
CG33269,DRSC10585,,,,6254,inactive
CG33109,DRSC16533,,,,7686,inactive
CG31638,DRSC02269,,,,8158,inactive
CG31638,DRSC03259,,,,7632,inactive
CG8661,DRSC20115,,,,5774,inactive
CG7011 + Prp31,DRSC10760,,,,8647,inactive
CR11023 (pseudo),DRSC00302,,,,7531,inactive
CG30275,DRSC04163,,,,6847,inactive
CG2614,DRSC02711,,,,5079,inactive
Rtnl2,DRSC12609,,,,6963,inactive
Rtnl2,DRSC21655,,,,8142,inactive
Dbx,DRSC08270,,,,4296,inactive
Dbx,DRSC08271,,,,4899,inactive
Dbx,DRSC08394,,,,5083,inactive
capt (capulet),DRSC00676,,,,8018,inactive
capt (capulet),DRSC00806,,,,7548,inactive
Spt20,DRSC10280,,reporter ratio raised past the hit cutoff,reporter ratio lowered past the hit cutoff,4523,inactive
Spt20,DRSC22993,,,,5023,inactive
CG32652 (retired record),DRSC18942,,,,4791,inactive
CG32652 (retired record),DRSC22662,,,,2980,inactive
